{
  "sequences": {"note": "Chains of the proteins cited; added tags and fusions are not shown. Residues count along the entry.", "UniProt P03886": "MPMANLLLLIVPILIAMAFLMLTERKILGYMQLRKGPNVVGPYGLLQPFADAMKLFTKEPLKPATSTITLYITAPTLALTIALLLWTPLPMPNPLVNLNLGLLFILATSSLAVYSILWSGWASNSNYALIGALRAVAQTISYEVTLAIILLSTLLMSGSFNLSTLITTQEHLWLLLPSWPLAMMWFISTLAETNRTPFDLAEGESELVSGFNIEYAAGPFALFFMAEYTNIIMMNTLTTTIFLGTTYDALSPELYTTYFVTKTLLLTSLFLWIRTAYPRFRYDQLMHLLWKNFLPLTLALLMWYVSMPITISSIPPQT", "UniProt P03891": "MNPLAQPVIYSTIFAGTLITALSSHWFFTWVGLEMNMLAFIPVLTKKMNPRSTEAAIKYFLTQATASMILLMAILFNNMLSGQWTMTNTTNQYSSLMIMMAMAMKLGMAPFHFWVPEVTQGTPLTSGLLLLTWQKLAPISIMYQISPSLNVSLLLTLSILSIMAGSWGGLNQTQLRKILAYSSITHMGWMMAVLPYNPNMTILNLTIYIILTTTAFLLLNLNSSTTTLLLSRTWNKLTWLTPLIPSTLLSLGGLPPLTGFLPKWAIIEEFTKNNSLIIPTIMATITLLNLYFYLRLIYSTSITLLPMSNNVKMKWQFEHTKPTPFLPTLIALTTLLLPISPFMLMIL", "UniProt Q9Y375, residues 25-327": "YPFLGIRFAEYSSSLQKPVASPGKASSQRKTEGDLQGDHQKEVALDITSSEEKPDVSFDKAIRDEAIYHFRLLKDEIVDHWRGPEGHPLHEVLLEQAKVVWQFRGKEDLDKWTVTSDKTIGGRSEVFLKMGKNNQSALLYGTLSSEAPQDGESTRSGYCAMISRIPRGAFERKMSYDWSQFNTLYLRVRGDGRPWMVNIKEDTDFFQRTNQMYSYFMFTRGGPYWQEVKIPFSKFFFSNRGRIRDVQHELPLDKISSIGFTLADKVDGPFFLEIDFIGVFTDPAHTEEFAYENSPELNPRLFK", "UniProt O95298": "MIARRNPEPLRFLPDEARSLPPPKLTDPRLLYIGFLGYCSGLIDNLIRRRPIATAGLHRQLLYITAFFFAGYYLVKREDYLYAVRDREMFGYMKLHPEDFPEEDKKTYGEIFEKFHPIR", "UniProt P03905": "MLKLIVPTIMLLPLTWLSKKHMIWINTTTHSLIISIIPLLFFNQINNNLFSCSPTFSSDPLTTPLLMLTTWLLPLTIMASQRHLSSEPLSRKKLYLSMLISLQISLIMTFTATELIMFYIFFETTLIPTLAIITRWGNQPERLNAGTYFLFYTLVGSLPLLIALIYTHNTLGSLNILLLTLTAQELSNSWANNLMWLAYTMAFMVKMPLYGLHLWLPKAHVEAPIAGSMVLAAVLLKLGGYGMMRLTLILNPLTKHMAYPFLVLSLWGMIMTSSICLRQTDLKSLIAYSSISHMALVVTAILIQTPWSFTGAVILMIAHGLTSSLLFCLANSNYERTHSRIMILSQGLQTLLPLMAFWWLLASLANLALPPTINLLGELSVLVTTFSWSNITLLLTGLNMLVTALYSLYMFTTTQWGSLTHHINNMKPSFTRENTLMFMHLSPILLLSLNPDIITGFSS"},
  "source": "paper doi:10.1101/2020.09.18.303255",
  "molecules": {"B1": {"name": "ACAD9 (protein, UniProt Q9H845 38-621)", "chain": "AFAKELFLGKIKKKEVFPFPEVSQDELNEINQFLGPVEKFFTEEVDSRKIDQEGKIPDETLEKLKSLGLFGLQVPEEYGGLGFSNTMYSRLGEIISMDGSITVTLAAHQAIGLKGIILAGTEEQKAKYLPKLASGEHIAAFCLTEPASGSDAASIRSRATLSEDKKHYILNGSKVWITNGGLANIFTVFAKTEVVDSDGSVKDKITAFIVERDFGGVTNGKPEDKLGIRGSNTCEVHFENTKIPVENILGEVGDGFKVAMNILNSGRFSMGSVVAGLLKRLIEMTAEYACTRKQFNKRLSEFGLIQEKFALMAQKAYVMESMTYLTAGMLDQPGFPDCSIEAAMVKVFSSEAAWQCVSEALQILGGLGYTRDYPYERILRDTRILLIFEGTNEILRMYIALTGLQHAGRILTTRIHELKQAKVSTVMDTVGRRLRDSLGRTVDLGLTGNHGVVHPSLADSANKFEENTYCFGRTVETLLLRFGKTIMEEQLVLKRVANILINLYGMTAVLSRASRSIRIGLRNHDHEVLLANTFCVEAYLQNLFSLSQLDKYAPENLDEQIKKVSQQILEKRAYICAHPLDRTC"}, "B2": {"name": "ECSIT (protein, UniProt Q9BQ95 49-431)", "chain": "SSEQSLVPSPPEPRQRPTKALVPFEDLFGQAPGGERDKASFLQTVQKFAEHSVRKRGHIDFIYLALRKMREYGVERDLAVYNQLLNIFPKEVFRPRNIIQRIFVHYPRQQECGIAVLEQMENHGVMPNKETEFLLIQIFGRKSYPMLKLVRLKLWFPRFMNVNPFPVPRDLPQDPVELAMFGLRHMEPDLSARVTIYQVPLPKDSTGAADPPQPHIVGIQSPDQQAALARHNPARPVFVEGPFSLWLRNKCVYYHILRADLLPPEEREVEETPEEWNLYYPMQLDLEYVRSGWDNYEFDINEVEEGPVFAMCMAGAHDQATMAKWIQGLQETNPTLAQIPVVFRLAGSTRELQTSSAGLEEPPLPEDHQEEDDNLQRQQQGQS"}},
  "experiment_in_all_cases": "co-IP",
  "key": {"[1]": {"target": "T1, TMEM126A with a C-terminal Flag epitope tag (human) (UniProt Q9H061)", "T1 sequence": "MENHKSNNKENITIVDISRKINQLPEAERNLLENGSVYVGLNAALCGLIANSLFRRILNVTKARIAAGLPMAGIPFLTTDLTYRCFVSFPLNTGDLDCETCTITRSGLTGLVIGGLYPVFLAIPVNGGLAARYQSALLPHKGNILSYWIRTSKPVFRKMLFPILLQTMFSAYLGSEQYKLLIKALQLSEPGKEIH"}, "[2]": {"target": "T2, TMEM126B with a Flag epitope tag (human) (UniProt Q8IUX1)", "T2 sequence": "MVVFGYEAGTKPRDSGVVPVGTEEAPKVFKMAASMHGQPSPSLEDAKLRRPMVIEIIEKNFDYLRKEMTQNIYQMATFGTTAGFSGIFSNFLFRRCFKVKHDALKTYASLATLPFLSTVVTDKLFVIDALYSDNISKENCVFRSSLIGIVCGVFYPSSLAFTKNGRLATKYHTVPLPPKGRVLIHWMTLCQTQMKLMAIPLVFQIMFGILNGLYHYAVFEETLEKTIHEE"}, "[3]": {"target": "T2, TMEM126B with a Flag epitope tag (human)", "remark": "listed apart in the source"}},
  "note": "Like-named read-outs stand apart in the source and are kept apart here. No constants are given. Whether binding was seen depends on the method and setting. In cells and extracts the contact can be indirect. Some entries that bind do so weakly or less than the wild type. Tags and fused reporters may be left off the sequences shown.",
  "data": [
    {"molecule": "ND1 (from UniProt P03886 1-318)", "values": [
      {"measurement": "binding", "setting": "[1]", "value": "binds weakly"}
    ]},
    {"molecule": "ND2 (from UniProt P03891 1-347)", "values": [
      {"measurement": "binding", "setting": "[1]", "value": "binds weakly"}
    ]},
    {"molecule": "NDUFAF1 (from UniProt Q9Y375 25-327)", "values": [
      {"measurement": "binding", "setting": "[2]", "value": "binds"}
    ]},
    {"molecule": "NDUFC2 (from UniProt O95298 1-119)", "values": [
      {"measurement": "binding", "setting": "[2]", "value": "binds"}
    ]},
    {"molecule": "mtDNA-encoded complex I subunit ND4 (from UniProt P03905 1-459)", "values": [
      {"measurement": "binding", "setting": "[1]", "value": "binds"}
    ]},
    {"molecule": "B1", "values": [
      {"measurement": "binding", "setting": "[3]", "value": "binds"}
    ]},
    {"molecule": "B2", "values": [
      {"measurement": "binding", "setting": "[3]", "value": "binds"}
    ]}
  ]
}
